Results reported in the supplement of paper PMC7666118.
The list shows a part of the results.

Protein sequences, listed by entry. Tags and fused reporters are not part of them. Lines headed by an entry give the natural chain unless they say otherwise; changes in a name come on top.
UniProt Q96EQ0: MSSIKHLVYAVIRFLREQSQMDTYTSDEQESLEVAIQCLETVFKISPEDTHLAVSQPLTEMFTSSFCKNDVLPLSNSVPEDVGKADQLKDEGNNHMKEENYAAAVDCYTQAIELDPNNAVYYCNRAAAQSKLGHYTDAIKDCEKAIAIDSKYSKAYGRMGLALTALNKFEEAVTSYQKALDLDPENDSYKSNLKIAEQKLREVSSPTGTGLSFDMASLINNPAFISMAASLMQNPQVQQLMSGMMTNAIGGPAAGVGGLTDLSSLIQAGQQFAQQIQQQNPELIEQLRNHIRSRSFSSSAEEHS
UniProt Q96GZ6: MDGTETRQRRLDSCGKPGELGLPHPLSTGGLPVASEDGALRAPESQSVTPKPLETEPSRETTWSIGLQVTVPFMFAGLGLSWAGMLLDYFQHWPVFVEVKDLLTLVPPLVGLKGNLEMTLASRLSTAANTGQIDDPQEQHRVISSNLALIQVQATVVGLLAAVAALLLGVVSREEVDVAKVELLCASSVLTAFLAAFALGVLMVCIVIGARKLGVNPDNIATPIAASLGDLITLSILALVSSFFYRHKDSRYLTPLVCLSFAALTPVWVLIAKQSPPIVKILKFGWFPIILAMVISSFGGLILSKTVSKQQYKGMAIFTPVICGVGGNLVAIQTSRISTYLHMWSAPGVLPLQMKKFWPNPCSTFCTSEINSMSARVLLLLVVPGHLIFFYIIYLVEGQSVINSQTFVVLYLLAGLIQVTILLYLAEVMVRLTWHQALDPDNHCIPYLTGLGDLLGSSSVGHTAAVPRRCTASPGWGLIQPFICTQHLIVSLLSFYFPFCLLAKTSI
UniProt Q9H7N4: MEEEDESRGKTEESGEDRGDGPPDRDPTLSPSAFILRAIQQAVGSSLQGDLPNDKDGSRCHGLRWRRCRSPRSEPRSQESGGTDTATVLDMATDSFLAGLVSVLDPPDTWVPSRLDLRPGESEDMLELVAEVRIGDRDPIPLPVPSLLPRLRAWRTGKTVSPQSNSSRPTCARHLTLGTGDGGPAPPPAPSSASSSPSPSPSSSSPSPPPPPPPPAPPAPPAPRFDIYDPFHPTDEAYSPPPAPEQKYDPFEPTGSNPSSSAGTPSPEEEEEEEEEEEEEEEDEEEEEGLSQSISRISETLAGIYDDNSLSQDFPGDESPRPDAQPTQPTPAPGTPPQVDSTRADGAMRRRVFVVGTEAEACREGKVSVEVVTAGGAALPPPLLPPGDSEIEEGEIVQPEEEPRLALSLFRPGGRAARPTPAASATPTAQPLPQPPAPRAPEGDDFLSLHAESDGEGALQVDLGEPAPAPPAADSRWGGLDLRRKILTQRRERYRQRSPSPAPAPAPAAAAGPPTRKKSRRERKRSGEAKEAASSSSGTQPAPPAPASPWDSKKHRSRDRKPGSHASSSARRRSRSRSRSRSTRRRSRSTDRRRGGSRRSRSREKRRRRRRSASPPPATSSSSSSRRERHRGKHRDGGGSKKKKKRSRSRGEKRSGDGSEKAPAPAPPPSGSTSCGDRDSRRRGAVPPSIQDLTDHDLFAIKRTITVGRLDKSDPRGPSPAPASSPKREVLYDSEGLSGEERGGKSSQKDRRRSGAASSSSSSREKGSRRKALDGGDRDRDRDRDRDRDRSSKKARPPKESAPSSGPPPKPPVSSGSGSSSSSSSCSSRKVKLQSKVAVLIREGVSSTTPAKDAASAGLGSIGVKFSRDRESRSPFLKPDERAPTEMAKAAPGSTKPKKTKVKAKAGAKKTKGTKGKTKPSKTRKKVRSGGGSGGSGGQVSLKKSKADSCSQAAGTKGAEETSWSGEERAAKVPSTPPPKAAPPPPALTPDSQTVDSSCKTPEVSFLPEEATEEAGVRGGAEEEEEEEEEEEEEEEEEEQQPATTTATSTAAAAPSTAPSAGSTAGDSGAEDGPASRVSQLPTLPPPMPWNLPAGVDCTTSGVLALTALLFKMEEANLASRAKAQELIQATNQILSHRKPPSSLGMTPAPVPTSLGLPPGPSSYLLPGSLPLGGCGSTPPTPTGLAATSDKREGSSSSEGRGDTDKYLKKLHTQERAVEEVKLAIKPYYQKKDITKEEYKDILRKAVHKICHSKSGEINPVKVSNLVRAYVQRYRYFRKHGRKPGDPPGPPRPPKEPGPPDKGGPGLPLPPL
UniProt Q96A29: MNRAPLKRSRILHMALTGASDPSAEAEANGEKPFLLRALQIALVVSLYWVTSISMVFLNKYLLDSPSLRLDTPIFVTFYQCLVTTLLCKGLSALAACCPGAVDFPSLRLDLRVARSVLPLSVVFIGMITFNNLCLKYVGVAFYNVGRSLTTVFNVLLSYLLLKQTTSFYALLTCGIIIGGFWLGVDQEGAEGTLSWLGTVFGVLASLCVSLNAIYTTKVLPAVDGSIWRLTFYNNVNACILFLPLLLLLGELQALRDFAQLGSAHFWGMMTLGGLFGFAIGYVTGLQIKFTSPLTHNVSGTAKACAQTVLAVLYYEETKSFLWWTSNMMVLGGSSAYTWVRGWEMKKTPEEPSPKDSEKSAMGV
UniProt Q16181: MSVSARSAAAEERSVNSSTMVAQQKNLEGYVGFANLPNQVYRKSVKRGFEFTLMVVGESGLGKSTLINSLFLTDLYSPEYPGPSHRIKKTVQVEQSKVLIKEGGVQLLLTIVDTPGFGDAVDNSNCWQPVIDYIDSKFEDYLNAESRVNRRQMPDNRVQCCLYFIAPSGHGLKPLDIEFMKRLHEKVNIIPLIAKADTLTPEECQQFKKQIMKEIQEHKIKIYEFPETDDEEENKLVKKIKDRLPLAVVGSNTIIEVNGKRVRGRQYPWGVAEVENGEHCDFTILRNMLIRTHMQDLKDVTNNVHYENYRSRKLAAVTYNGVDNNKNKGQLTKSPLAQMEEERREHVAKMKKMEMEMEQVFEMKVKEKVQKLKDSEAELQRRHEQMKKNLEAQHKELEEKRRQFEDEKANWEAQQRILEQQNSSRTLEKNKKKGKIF
UniProt Q9UJS0: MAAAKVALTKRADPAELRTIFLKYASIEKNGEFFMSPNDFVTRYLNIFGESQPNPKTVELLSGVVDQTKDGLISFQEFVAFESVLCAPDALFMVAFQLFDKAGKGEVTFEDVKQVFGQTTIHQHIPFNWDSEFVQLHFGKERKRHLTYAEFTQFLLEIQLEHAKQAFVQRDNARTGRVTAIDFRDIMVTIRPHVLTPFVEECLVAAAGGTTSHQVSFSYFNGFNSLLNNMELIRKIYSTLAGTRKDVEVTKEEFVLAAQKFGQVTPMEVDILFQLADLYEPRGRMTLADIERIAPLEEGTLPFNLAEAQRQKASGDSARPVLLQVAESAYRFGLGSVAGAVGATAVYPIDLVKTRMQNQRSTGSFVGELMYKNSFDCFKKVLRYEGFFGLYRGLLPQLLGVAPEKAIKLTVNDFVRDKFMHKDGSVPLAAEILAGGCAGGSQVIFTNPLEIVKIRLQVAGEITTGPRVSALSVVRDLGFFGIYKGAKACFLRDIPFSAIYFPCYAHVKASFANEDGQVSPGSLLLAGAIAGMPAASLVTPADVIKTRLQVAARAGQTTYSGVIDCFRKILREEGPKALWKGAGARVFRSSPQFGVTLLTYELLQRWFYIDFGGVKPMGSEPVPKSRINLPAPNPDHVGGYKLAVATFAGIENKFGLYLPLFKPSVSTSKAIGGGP
UniProt P18827: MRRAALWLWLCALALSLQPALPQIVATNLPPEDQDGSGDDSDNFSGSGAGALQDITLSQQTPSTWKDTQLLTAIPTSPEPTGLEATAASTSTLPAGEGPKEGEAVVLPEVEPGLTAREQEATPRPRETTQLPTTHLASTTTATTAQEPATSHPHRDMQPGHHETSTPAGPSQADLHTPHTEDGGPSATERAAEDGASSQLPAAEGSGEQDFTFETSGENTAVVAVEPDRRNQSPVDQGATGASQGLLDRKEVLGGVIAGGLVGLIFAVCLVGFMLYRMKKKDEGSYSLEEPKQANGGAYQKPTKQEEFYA
UniProt P34896: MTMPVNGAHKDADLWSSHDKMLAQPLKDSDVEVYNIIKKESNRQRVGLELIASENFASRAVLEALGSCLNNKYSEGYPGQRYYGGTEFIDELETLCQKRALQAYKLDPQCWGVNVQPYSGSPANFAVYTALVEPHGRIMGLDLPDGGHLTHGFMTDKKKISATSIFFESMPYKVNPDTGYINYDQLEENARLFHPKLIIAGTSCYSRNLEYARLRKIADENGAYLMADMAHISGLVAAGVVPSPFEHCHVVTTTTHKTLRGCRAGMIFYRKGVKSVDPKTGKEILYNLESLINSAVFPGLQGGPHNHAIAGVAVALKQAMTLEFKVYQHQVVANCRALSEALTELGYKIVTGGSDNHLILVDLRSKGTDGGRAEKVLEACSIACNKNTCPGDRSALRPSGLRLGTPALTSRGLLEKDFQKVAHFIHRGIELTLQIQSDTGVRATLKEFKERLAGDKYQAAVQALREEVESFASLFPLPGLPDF
UniProt P62341, whole entry: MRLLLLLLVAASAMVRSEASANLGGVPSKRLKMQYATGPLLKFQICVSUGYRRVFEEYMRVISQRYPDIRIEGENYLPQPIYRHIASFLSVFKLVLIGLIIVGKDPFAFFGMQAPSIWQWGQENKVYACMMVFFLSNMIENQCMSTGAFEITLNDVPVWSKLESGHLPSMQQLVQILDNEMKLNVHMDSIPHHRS
UniProt O43826: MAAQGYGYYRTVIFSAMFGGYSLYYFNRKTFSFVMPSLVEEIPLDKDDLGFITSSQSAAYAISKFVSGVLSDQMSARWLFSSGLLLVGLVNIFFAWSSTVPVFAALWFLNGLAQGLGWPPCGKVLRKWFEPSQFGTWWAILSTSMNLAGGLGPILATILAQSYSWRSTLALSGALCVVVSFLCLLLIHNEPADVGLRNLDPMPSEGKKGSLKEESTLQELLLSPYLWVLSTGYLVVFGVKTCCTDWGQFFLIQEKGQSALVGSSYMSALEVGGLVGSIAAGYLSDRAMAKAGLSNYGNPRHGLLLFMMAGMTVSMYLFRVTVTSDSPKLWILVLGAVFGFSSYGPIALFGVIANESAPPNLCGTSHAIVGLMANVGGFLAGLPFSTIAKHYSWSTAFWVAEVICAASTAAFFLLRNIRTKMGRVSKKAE
UniProt Q6PML9: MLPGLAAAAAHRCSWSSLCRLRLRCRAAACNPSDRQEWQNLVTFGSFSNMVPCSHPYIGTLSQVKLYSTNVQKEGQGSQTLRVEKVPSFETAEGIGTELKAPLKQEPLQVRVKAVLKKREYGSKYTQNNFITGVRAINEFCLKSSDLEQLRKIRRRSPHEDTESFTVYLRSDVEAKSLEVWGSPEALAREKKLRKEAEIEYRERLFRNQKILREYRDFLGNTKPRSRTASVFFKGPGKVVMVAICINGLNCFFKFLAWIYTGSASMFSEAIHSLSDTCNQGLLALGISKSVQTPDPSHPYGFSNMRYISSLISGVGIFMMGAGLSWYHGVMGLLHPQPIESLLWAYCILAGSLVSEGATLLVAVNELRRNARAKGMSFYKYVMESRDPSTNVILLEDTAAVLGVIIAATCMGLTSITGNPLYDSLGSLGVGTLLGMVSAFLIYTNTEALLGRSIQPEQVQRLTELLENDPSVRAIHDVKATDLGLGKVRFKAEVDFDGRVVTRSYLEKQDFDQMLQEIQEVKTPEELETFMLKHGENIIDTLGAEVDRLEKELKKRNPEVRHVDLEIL
UniProt P49903: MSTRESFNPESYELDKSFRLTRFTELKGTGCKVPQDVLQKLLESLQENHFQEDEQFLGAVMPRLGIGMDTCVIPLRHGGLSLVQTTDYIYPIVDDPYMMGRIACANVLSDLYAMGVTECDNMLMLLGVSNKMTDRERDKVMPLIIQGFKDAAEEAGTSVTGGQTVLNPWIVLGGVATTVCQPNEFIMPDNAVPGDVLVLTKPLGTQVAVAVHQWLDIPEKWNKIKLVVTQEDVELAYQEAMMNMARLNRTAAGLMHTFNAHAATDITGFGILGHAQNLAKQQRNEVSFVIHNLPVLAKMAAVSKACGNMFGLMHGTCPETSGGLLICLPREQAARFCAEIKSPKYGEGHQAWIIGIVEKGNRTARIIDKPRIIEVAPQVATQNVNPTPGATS
UniProt P84103: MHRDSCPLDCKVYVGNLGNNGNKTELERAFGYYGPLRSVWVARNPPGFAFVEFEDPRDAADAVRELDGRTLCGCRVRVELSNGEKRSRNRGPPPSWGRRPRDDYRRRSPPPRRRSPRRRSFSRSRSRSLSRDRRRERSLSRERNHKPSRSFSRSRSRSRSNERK
UniProt Q9BX95: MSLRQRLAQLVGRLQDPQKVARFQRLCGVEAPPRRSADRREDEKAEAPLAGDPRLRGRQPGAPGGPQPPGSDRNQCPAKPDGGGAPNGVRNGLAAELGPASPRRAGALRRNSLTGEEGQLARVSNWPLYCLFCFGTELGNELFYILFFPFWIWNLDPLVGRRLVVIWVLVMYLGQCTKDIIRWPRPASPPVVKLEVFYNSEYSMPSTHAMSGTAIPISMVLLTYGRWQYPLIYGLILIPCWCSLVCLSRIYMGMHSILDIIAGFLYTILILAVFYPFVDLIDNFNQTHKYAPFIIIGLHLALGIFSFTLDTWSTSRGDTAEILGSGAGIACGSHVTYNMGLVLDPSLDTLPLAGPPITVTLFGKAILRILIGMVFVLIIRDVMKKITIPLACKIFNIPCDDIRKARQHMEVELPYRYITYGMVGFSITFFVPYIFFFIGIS

Compound: COc1ccc(Cn2ccc3ccc(C(=O)NO)cc32)cc1
Assay: dose-dependent thermal stabilisation call (2D-TPP, DLPTP, 10% FDR) (binary (1 = stabilised)); higher = stabilised by the compound
Settings: system: HL-60 intact cells; concentration range 0.04-10 µM

Target | dose-dependent thermal stabilisation call
SCYL2 (UniProt Q6P3W7) | inactive: 0
SLC38A1 (UniProt Q9H2H9) | inactive: 0
SGTB (UniProt Q96EQ0) | inactive: 0
SLC41A3 (UniProt Q96GZ6) | inactive: 0
SENP6 (UniProt Q9GZR1) | inactive: 0
SFRS18 (UniProt Q8TF01) | inactive: 0
SLC27A2 (UniProt O14975) | active: 1
SCD (UniProt O00767) | inactive: 0
SCAF1 (UniProt Q9H7N4) | inactive: 0
SLC35C1 (UniProt Q96A29) | inactive: 0
SLC25A5 (UniProt P05141) | inactive: 0
SEPT7 (UniProt Q16181) | inactive: 0
SEC63 (UniProt Q9UGP8) | inactive: 0
SLC25A13 (UniProt Q9UJS0) | active: 1
SLC25A24 (UniProt Q6NUK1) | inactive: 0
SDC1 (UniProt P18827) | inactive: 0
SHMT1 (UniProt P34896) | inactive: 0
SLC2A13 (UniProt Q96QE2) | inactive: 0
SLC25A3 (UniProt Q00325) | inactive: 0

Target | dose-dependent thermal stabilisation call
SELT (UniProt P62341) | inactive: 0
SFRS1 (UniProt Q07955) | inactive: 0
SLC25A20 (UniProt O43772) | inactive: 0
SLC12A6 (UniProt Q9UHW9) | inactive: 0
SLC4A7 (UniProt Q9Y6M7) | inactive: 0
SLC7A2 (UniProt P52569) | inactive: 0
SIRPA (UniProt P78324) | inactive: 0
SETD1A (UniProt O15047) | inactive: 0
SLC37A4 (UniProt O43826) | inactive: 0
SEL1L (UniProt Q9UBV2) | inactive: 0
SDCBP (UniProt O00560) | inactive: 0
SLC20A2 (UniProt Q08357) | inactive: 0
SLC30A9 (UniProt Q6PML9) | inactive: 0
SEPHS1 (UniProt P49903) | inactive: 0
SFRS3 (UniProt P84103) | inactive: 0
SGPP1 (UniProt Q9BX95) | inactive: 0
SFRS12 (UniProt Q8WXA9) | inactive: 0
SCCPDH (UniProt Q8NBX0) | active: 1

Taken from above:
In dose-dependent thermal stabilisation call, SLC30A9 (UniProt Q6PML9) has inactive: 0
In dose-dependent thermal stabilisation call, SHMT1 (UniProt P34896) has inactive: 0
